Measurements reported in PubChem BioAssay AID743456 (Peter MacCallum Cancer Centre, 2014)

Assay: 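Identify miRNAs tied to vorinostat resistance or sensitivity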 (primary screen)
Cells: human HCT116-VR colon cancer cells, a vorinostat-resistant HCT116 line
Reagents: miRNA mimic
Time to read-out: about 3 days from transfection to readout; drug present for the last 24 h
Treatment: vorinostat at 2.5 µM final for 24 h
Measurement: 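Cell viability from CellTiter-Fluor signal and caspase activity from luminescence after 24 h vorinostat at 2.5 µM, given as robust z-scores and as ratios to mock-transfected wells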
Scale: viability robust z-score and viability vs mock transfection: higher = more viable cells; caspase robust z-score: higher = more caspase activity, more apoptosis
Hit rule: 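a mimic counts as active if it lands in a lowered-viability class or a caspase-activation class; wells with too few cells without drug are left out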
Shown is an unselected part of 878 reagents. 27 of them (3.1%) were called active. 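27 mimics are marked active, unlike an earlier stated count of 24; the viability threshold is described inconsistently.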 Unmarked entries are inactive. Not stated in the record: the amount of reagent.

microRNA	viability robust z-score	caspase robust z-score	viability hit class	caspase hit class	viability vs mock transfection
hsa-miR-26a-1*	1.34	-0.68	no change	no change	0.98
hsa-miR-34c-5p	-2.4 (active)	4.63	no change	caspase activation	0.38
hsa-miR-744	-0.82	0.58	no change	no change	0.6
hsa-miR-652	0.73	-0.82	no change	no change	0.91
hsa-miR-422a	-1.4	2.11	no change	no change	0.5
hsa-miR-200a*	0.03	-0.98	no change	no change	0.76
hsa-miR-1911	0.18	-0.58	no change	no change	0.78
hsa-miR-1292	1.14	0.02	no change	no change	0.96
hsa-miR-561	1	-0.48	no change	no change	0.96
hsa-miR-411*	0.43	-0.74	no change	no change	0.86
hsa-miR-337-3p	0.45	-0.45	no change	no change	0.86
hsa-miR-19a*	-0.76	0.22	no change	no change	0.66
hsa-miR-379	-0.48	-0.46	no change	no change	0.66
hsa-miR-30b*	-1.18	2.27	no change	no change	0.59
hsa-miR-193b*	-0.59	0.4	no change	no change	0.69
hsa-miR-186	1.78	0.08	no change	no change	1.06
hsa-miR-548l	1.24	-0.18	no change	no change	0.97
hsa-miR-103-as	-1.79	-1.21	no change	no change	0.43
hsa-miR-589	0.78	-0.67	no change	no change	0.92
hsa-miR-339-5p	-1.19	0.07	no change	no change	0.59
hsa-miR-548c-3p	0.99	-0.66	no change	no change	0.96
hsa-miR-455-5p	-0.73	2.44	no change	no change	0.67
hsa-miR-518e*	0.94	0.74	no change	no change	0.95
hsa-miR-768-5p	-0.38	-0.41	no change	no change	0.68
hsa-miR-548b-5p	-0.04	0.24	no change	no change	0.78
hsa-miR-454*	1.31	-0.48	no change	no change	0.98
hsa-miR-1323	0.16	1.15	no change	no change	0.82
hsa-miR-15b*	-0.18	-0.61	no change	no change	0.76

Continued, starting with the last 4 of the part before.
microRNA	viability robust z-score	caspase robust z-score	viability hit class	caspase hit class	viability vs mock transfection
hsa-miR-548b-5p	-0.04	0.24	no change	no change	0.78
hsa-miR-454*	1.31	-0.48	no change	no change	0.98
hsa-miR-1323	0.16	1.15	no change	no change	0.82
hsa-miR-15b*	-0.18	-0.61	no change	no change	0.76
hsa-miR-769-3p	-0.3	-0.78	no change	no change	0.7
hsa-miR-374a*	0.83	-0.52	no change	no change	0.93
hsa-miR-125b	0.58	-1.02	no change	no change	0.86
hsa-miR-610	-0.76	3.66	no change	no change	0.61
hsa-miR-493	-2.1	4.54	no change	no change	0.44
hsa-miR-194	0	0.1	no change	no change	0.75
hsa-miR-146a*	0.88	-0.44	no change	no change	0.94
hsa-miR-27b*	0.3	0.57	no change	no change	0.8
hsa-miR-618	-0.72	0.14	no change	no change	0.62
hsa-miR-432	-1.17	0.56	no change	no change	0.54
hsa-miR-299-5p	0.08 (active)	6.86	no change	caspase activation	0.76
hsa-miR-365	-0.76	0.8	no change	no change	0.66
hsa-miR-149	-0.03	-0.42	no change	no change	0.78
hsa-miR-615-5p	1.1	-0.8	no change	no change	0.98
hsa-miR-146b-3p	-0.03	0.95	no change	no change	0.74
hsa-miR-1289	-1.03	-0.07	no change	no change	0.56
hsa-miR-662	0.42	-0.84	no change	no change	0.86
hsa-miR-661	-2.38 (active)	4.95	no change	caspase activation	0.4
hsa-miR-539	1.3	-0.27	no change	no change	1.01
hsa-miR-16-1*	0.22	0.37	no change	no change	0.84
hsa-miR-127-3p	0.41	0.18	no change	no change	0.82
hsa-miR-608	-0.96	4.12	no change	no change	0.58
